This experiment is described as follows: qHTS Assay for Lipid Storage Modulators in Drosophila S3 Cells.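 For cell number change: cells counted by Cell Tracker Red CMTPX staining in the red channel.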 Conditions: BODIPY lipid droplet fluorescence, 18-24 h; for cell number change: measured here: cell count max response, cells fed with added oleic acid. In short, it runs like this:
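Laser-scanning cytometry quantifies lipid droplet accumulation (500–530 nm total intensity; droplet/cell object ratio) in oleic acid-fed (400 uM added) Drosophila S3 cells treated with a concentration series. 20 uM Triacsin C defined 100% inhibition.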

Setting [1] is: measured here: cell number channel AC50, cells fed with added oleic acid.
[2] abbreviates: measured here: lipid fluorescence (Fed channel) AC50, cells fed with added oleic acid.

This is one part of the list. Shown are side measurements of this screen, not its main read-out; they come without a call. Most of these compounds were active or inconclusive in the main read-out, so they are no random draw. Potencies come from curve fits of mixed quality, noted in brackets.

One may read the AC50 as the midpoint of the concentration-response curve, whichever way the signal moves. In the case of `O=C(NCCCN1CCCC1=O)c1cc(=O)c2ccccc2o1`, the cell number change worked out at 8.12%. Also, under setting [1], the half-maximal activity concentration (AC50) was 0.411 µM [falling, single point].
As for `O=C(CCC1CCCC1)NCCS(=O)(=O)N1CCN(c2ccccc2)CC1`, the AC50 under setting [1] was 0.092 µM [falling, full curve, poor fit].
For `Cc1cccc(CN2C(=O)c3ccccc3Sc3ccc(C(=O)NCCCN4CCOCC4)cc32)c1`, the AC50 under setting [2] was 7.31 µM [rising, partial curve].
As for `COCCCn1c(SCC(=O)c2ccccc2)nc2ccccc2c1=O`, the cell number change was -12.1%.
For the compound `O=C(CN(C(=O)c1csnn1)c1ccc(F)cc1)NCc1ccc2c(c1)OCO2`, the cell number change was 1.28%. For the same compound, under setting [2], the AC50 is 6.51 µM [rising, single point].
In the case of `Cc1cccc(N)c1-c1c(C)cccc1N`, the cell number change was determined as 13.1%. Under setting [2], the AC50 is 29.1 µM [rising, single point].
Take `Cc1ccc(CC2CC(=O)N(c3ccncc3)C2=O)cc1` (centres undefined): the cell number change was 4.67%. Moreover, the AC50 under setting [2] was 0.517 µM [falling, full curve, poor fit].
For the compound `COc1ccc(Br)cc1/C=N/n1c(C)nc2ccccc2c1=O`, the AC50 under setting [2] was 6.51 µM [falling, single point].
With `CC(=O)Nc1ccc(S(=O)(=O)NCC2CCC(C(=O)NCCC3=CCCCC3)CC2)cc1` (centres undefined), under setting [2], the AC50 is 0.461 µM [rising, full curve].
As for `CCc1nc(SCC(=O)c2cccs2)c2oc3ccccc3c2n1`, the cell number change was -25%. For the same compound, under setting [2], the AC50 was 18.4 µM [falling, single point].
For `O=C(CCc1ccccc1)NC(=S)Nc1cccc(C(=O)O)c1`, the cell number change came to 24.4%. Besides, under setting [2], the AC50 was 29.1 µM [rising, single point].
On to `Cc1nn(C)c(C)c1CN(C)C(=O)C1CCC(=O)N(C2CCCCCC2)C1` (centres undefined), for which the cell number change is 1.94%. The AC50 under setting [1] is 0.184 µM [rising, full curve, poor fit].
For the compound `CCOC(=O)C1/C(=N\O)CC(C)(O)C(C(=O)OCC)C1c1ccc(N(C)C)cc1` (centres undefined), the AC50 under setting [1] was 4.11 µM [rising, single point].
In the case of `CNC(=O)c1cc2cc(OC)ccc2oc1=O`, the cell number change is 25.6%.
Take `COC(=O)c1c(NC(=O)Cc2ccccc2)sc(C)c1C`: the AC50 was 1.46 µM [rising, partial curve] under setting [1] and 2.91 µM [rising, partial curve] under setting [2].
With `O=C(CSc1nccn1-c1ncc(C(F)(F)F)cc1Cl)c1ccc(Br)cc1`, the cell number change turned out to be 10.2%. For the same compound, the AC50 under setting [2] was 6.51 µM [rising, partial curve].
For `CCCCS(=O)c1snnc1C` (centres undefined), the cell number change came out at 78.2%. Moreover, the AC50 under setting [1] is 3.26 µM [falling, single point]. For the same compound, the AC50 under setting [2] was 4.11 µM [falling, partial curve].
Take `COc1c(O)cc2c(c1O)[C@@H]1O[C@H](CO)[C@@H](O)[C@H](O)[C@H]1OC2=O`: the cell number change was -13.9%. In addition, the AC50 under setting [2] is 0.58 µM [falling, partial curve].
As to `N#Cc1cc(C(=O)c2ccccc2O)cn(-c2nccs2)c1=O`, the cell number change was determined as 2.33%. For the same compound, the AC50 under setting [2] is 11.6 µM [rising, partial curve].
In the case of `CCOc1ccc(NC(=O)CC2SC(N)=NC2=O)c([N+](=O)[O-])c1` (centres undefined), the cell number change worked out at 9.09%.
For `O/C(=C\c1nc2ccccc2nc1/C=C(\O)c1ccccc1)c1ccccc1`, the cell number change is 9.63%. Besides, the AC50 under setting [2] was 0.00461 µM [rising, full curve, poor fit].
Turning to `O=C(Nc1ccc(N2C(=O)C3C4C=CC(C4)C3C2=O)cc1)Nc1nnc(C(F)(F)F)s1` (centres undefined), the cell number change is -39.8%. Moreover, under setting [1], the AC50 was 0.411 µM [falling, full curve, poor fit]. Moreover, the AC50 under setting [2] was 0.13 µM [falling, full curve, poor fit].
Regarding `COc1ccc(NC(=O)CSCC(=O)N(C)CCOc2ccc(Cl)cc2)cc1`, the cell number change came to 3.3%. For the same compound, the half-maximal activity concentration (AC50) under setting [2] is 4.11 µM [rising, partial curve].
For the compound `COc1ccc(CNC(=O)C2CCC(CNS(=O)(=O)c3ccc(C)cc3)CC2)cc1` (centres undefined), the cell number change was determined as 23.2%. Further, the AC50 under setting [2] was 3.26 µM [rising, full curve, poor fit].
Take `Cc1c(Cl)cccc1NC(=O)C1Cc2ccccc2CN1C(=O)c1ccccc1` (centres undefined): the cell number change amounted to 15%. Besides, the AC50 under setting [2] is 4.11 µM [rising, full curve, poor fit].
Turning to `CC1(C)Cc2nc(NCCCO)c(C#N)cc2CO1`, the cell number change is -7.26%. In addition, the concentration at half-maximal activity (AC50) under setting [2] was 6.51 µM [falling, single point].
Regarding `CCCCCCNC(=O)CC(c1ccccc1)c1cc(Br)ccc1O` (centres undefined), the cell number change was -4.99%. Moreover, the half-maximal activity concentration (AC50) under setting [1] was 1.03 µM [falling, partial curve, poor fit]. Besides, under setting [2], the AC50 is 1.84 µM [falling, partial curve, poor fit].
In the case of `CC(=O)N1c2ccc(S(=O)(=O)N(C)CC(=O)NC(C)c3ccccc3)cc2CC1C` (centres undefined), the cell number change was -0.298%. In addition, under setting [2], the AC50 was 0.00461 µM [falling, full curve, poor fit].
`COC(=O)C1=C(N)c2c(F)cccc2C1(C#N)c1ccc(F)cc1` (centres undefined): the cell number change worked out at 62.8%. The AC50 under setting [1] is 16.4 µM [rising, single point]. Besides, the AC50 under setting [2] was 0.184 µM [falling, full curve, poor fit].
In the case of `CC(C(=O)NC1(C#N)CCCCC1)N(C)CC(=O)Nc1ccc(Cl)c(Cl)c1` (centres undefined), the cell number change is -5.55%. For the same compound, under setting [2], the AC50 was 0.326 µM [falling, partial curve, poor fit].
`CCCn1cnc2cc(NCc3cccs3)ccc21`: the cell number change is 13.4%. Moreover, under setting [2], the AC50 is 0.731 µM [rising, full curve, poor fit].
Turning to `Cc1cc(-c2ccc(C)c(S(=O)(=O)NCCc3ccco3)c2)on1`, the AC50 under setting [2] is 1.64 µM [rising, partial curve, poor fit].
In the case of `O=[N+]([O-])c1cc(S(=O)(=O)NCCc2ccccn2)ccc1Cl`, the cell number change was -37.3%. Besides, under setting [1], the AC50 was 0.291 µM [falling, full curve, poor fit]. In addition, the AC50 under setting [2] was 0.0259 µM [falling, full curve, poor fit].
Turning to `Cc1ccnc2nc(C(=O)OCC(=O)N3CCc4ccccc43)nn12`, the cell number change was -27.9%. The AC50 under setting [2] is 25.9 µM [falling, single point].
On to `CC(=O)Nc1ccc(S(=O)(=O)NCCS(=O)(=O)N2CCN(c3ccccc3)CC2)cc1`, for which the cell number change stood at 11.6%.
Consider `O=C(O)CN1C(=O)NC2NC(=O)NC21` (centres undefined), for which the cell number change was -40.1%. Also, the AC50 under setting [1] is 5.8 µM [falling, full curve]. Further, the AC50 under setting [2] is 4.11 µM [falling, full curve].
As to `Cc1ccc(C2=NNC(C(O)C(O)C(O)C(O)CO)S2)cc1` (centres undefined), the AC50 under setting [2] is 20.6 µM [falling, partial curve].
As for `Cc1cc(C)c2oc(C(=O)N3CCN(Cc4ccccc4)CC3)cc(=O)c2c1`, the cell number change turned out to be 36.1%. Besides, the half-maximal activity concentration (AC50) under setting [1] was 10.3 µM [rising, partial curve]. Also, under setting [2], the AC50 was 1.84 µM [rising, full curve, poor fit].
`COC(=O)C1(C(C[N+](=O)[O-])c2ccc(C)cc2)C(=O)NCC1c1ccco1` (centres undefined): the cell number change was -2.77%.
For `CC(Sc1nnc(-c2ccco2)n1N)C(=O)NCC1CCCO1` (centres undefined), the cell number change came out at 4.8%.
In the case of `Cn1c(-c2ccc(F)c(F)c2)cc2onc(-c3ccccc3)c2c1=O`, the cell number change is 17.2%. Besides, the half-maximal activity concentration (AC50) under setting [2] was 16.4 µM [rising, partial curve, poor fit].
As to `Cc1ccccc1NC(=O)Nc1c(C)n(C)n(-c2ccccc2)c1=O`, the cell number change was found to be 12.1%. Moreover, the AC50 under setting [2] was 29.1 µM [rising, single point].
With `CC(C)[C@H](NC(=O)Nc1ccccc1F)C(=O)O`, the cell number change is -71.5%. Also, the concentration at half-maximal activity (AC50) under setting [1] is 1.16 µM [falling, partial curve]. Besides, the AC50 under setting [2] was 0.164 µM [rising, full curve, poor fit].
Regarding `CC(=O)Nc1nc(NC(=O)/C=C/c2ccccc2)n(-c2ccccc2)n1`, the cell number change worked out at 26.6%. Also, under setting [1], the AC50 is 0.291 µM [rising, full curve, poor fit]. Under setting [2], the half-maximal activity concentration (AC50) is 0.259 µM [rising, full curve].
As for `Cn1cccc1/C=N/NC(=O)c1cc2ccccc2cc1O`, the cell number change was -6.67%.
In the case of `CCCN1CCN(CCCNC(=O)Cn2nc(-c3ccccc3)ccc2=O)CC1`, the cell number change was -0.878%. For the same compound, the AC50 under setting [2] was 7.31 µM [falling, partial curve].
As to `Cc1cc(C)cc(N(C(=O)c2csnn2)C(C(=O)NC2CCCC2)c2cccnc2)c1` (centres undefined), under setting [2], the AC50 was 29.1 µM [falling, single point].
As for `Cc1cc(C)c2c(N)c(C(=O)C(C)(C)C)sc2n1`, the cell number change amounted to 3.56%. Moreover, the half-maximal activity concentration (AC50) under setting [1] is 0.731 µM [rising, single point].
Regarding `O=Cc1c(-c2ccc(F)cc2)nc2ccccn12`, the cell number change turned out to be 51.2%. Further, the concentration at half-maximal activity (AC50) under setting [1] is 29.1 µM [rising, single point]. For the same compound, the AC50 under setting [2] was 29.1 µM [rising, single point].
On to `COc1cccc(CNC(=O)C2CC(=O)N(C3CCCCC3)C2)c1` (centres undefined), for which the cell number change stood at 16.8%.
For `N#Cc1cn(CC(=O)O)c2ccccc12`, the cell number change stood at 13.6%. Further, the AC50 under setting [2] is 6.51 µM [rising, single point].
For `Cc1ccc(S(=O)(=O)NCCN=Cc2ccc(N(C)C)cc2)cc1`, the cell number change is -0.495%.
On to `Oc1ccc(-c2nc3c4c(ncn3n2)-c2ccccc2CC42CCCC2)cc1`, for which the cell number change is -12.6%. In addition, the AC50 under setting [1] is 0.326 µM [falling, partial curve, poor fit]. Under setting [2], the AC50 was 1.3 µM [rising, full curve, poor fit].
Regarding `CSc1nnc(C)c(/C=C/Nc2ccc(F)cc2F)n1`, the cell number change was -10.4%.
For `CC(C)c1ccc(CN(C)C(=O)c2ccc(S(=O)(=O)NCc3ccco3)cc2)cc1`, the cell number change was -40%. For the same compound, under setting [1], the AC50 was 20.6 µM [falling, single point]. Besides, the AC50 under setting [2] was 0.259 µM [rising, partial curve, poor fit].
On to `Cc1cc(NC(=O)c2cc(-c3ccccc3)on2)n(-c2ccccc2)n1`, for which the cell number change was -1.89%. Further, the AC50 under setting [2] was 0.58 µM [rising, partial curve, poor fit].
Regarding `Cn1c(C(=O)N2CCN(Cc3ccccc3)CC2)cc2c(=O)n(C)c3ccccc3c21`, the cell number change is -19.1%. The AC50 under setting [2] is 7.31 µM [rising, partial curve].
Consider `COc1ccc(CC(=O)Oc2ccc(C#N)cc2)cc1`, for which the cell number change worked out at 40.5%. The AC50 under setting [1] is 32.6 µM [rising, partial curve, poor fit].
In the case of `CCC1CCCCN1C(=O)c1ccc(OC2CCN(C(=O)CCOC)CC2)cc1` (centres undefined), the cell number change was -9.14%. Under setting [2], the AC50 is 0.231 µM [rising, full curve, poor fit].
For `CCc1nnc(NS(=O)(=O)c2ccc(NC(=O)/C=C/C(=O)O)cc2)s1`, the cell number change was -13.6%. Under setting [2], the AC50 is 29.1 µM [rising, single point].

The values are drawn from PubChem BioAssay AID2685 (National Center for Advancing Translational Sciences (NCATS), 2010).
